In patent US9598459B2, “Pharmaceutical compositions and methods” (priority 2015, dated 2017):

Test system: cellular ribosomal RNA (rRNA) synthesis
Test: Cellular ribosomal RNA synthesis in HCV replicon cells (TaqMan RT-qPCR)
Format: cell-based
Conditions: 10 μM

`C[C@@]1(O)[C@H](O)[C@@H](CO)O[C@H]1n1ccc(N)nc1=O` [2′-C-methylcytidine (RS-446), 2′-C-methylcytidine, reference compound] was tested, and the “TaqMan RT-qPCR threshold cycle value difference (ΔCT) of cellular ribosomal RNA (rRNA) synthesis” value was 0.54.
For `CC#C[C@]1(O)CC[C@H]2[C@@H]3CCC4=CC(=O)CCC4=C3[C@@H](c3ccc4c(c3)OCO4)C[C@@]21C` [PT150, (11β,17β)-11-(1,3-benzodioxol-5-yl)-17-hydroxy-17-(1-propynyl)-estra-4,9-dien-3-one], the “TaqMan RT-qPCR threshold cycle value difference (ΔCT) of cellular ribosomal RNA (rRNA) synthesis” value was −0.48.
For `CC#CC1(O)CCC2C3CCC4=CC(=NNC(N)=S)CCC4=C3C(c3ccc4c(c3)OCO4)CC21C.CC#CC1(O)CCC2C3CCC4=CC(=O)CCC4=C3C(c3ccc4c(c3)OCO4)CC21C.CC(C)=O.CCO.O` (stereo not drawn) [PT155, ⅓ (11β,17β)-17-Hydroxy-11-[3,4-(methylenedioxy)phenyl]-17-(1-propyn-1-yl)estra-4,9-dien-3-one (ORG34517)×(2EZ)-2-{(11β,17β)-17-hydroxy-11-[3,4-(methylenedioxy)phenyl]-17-(1-propyn-1-yl)estra-4,9-dien-3-ylidene}hydrazinecarbothioamide [71.8% (E), 28.2% (Z)] hemihydrate×¾% acetone× ⅛ ethanol], the “TaqMan RT-qPCR threshold cycle value difference (ΔCT) of cellular ribosomal RNA (rRNA) synthesis” value was −0.19.
